# Library screening results

The chains behind the UniProt entries cited, without tags or fusion partners.
UniProt E9BF75, entry or part of it: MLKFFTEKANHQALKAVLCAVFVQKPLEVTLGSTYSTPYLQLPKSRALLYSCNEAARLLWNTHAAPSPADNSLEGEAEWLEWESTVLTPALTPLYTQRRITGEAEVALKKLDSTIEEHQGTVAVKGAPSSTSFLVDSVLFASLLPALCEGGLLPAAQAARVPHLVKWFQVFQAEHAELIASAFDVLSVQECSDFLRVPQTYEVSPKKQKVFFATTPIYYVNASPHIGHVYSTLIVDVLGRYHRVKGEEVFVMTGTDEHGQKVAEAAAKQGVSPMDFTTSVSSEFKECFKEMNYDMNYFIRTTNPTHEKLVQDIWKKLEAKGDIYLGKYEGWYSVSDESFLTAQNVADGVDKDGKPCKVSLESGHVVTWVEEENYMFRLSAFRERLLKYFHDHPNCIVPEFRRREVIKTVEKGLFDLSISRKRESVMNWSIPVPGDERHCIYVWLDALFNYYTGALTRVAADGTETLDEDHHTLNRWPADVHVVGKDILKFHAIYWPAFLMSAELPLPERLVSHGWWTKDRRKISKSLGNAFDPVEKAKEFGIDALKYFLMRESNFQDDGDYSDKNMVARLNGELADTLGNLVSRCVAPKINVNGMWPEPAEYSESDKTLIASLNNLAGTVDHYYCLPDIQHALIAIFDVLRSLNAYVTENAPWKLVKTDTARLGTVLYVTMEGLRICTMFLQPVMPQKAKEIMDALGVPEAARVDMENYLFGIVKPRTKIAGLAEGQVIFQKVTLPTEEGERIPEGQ

The values are deposited in ChEMBL (CHEMBL3988442, “University of Dundee, Small-Polar-MMV Screening Library” (2021)).

Results are percentages, as filed.
How 0% and 100% were set is not recorded. Most values in the screen are low, and negative values occur.
The compounds are a random part of those screened.

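Primary screen of methionyl-tRNA synthetase; the read-out is not stated. Target: Methionyl-tRNA synthetase (putative), Leishmania donovani (UniProt E9BF75). The test concentration is not given. The values are filed as inhibition. Size under these conditions: about 68,000 compounds, about 24 of them at 50% or above in at least one test.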

structure	inhibition
COc1cccc(CNCc2ccnc(N3CCOCC3)c2)c1OC	20.56%
O=C(NCc1nc2cc(F)ccc2[nH]1)c1ccc[nH]1	18.92%
Cc1cnc(CN(Cc2cccc(O)c2)CC2CC2)cn1	8.163%
COc1ccc(CCn2cnc(C#N)n2)cc1	12.01%
Cn1cccc1C(O)CNS(=O)(=O)c1ccccc1F (centres undefined)	-2.158%
CCOc1ccnc(N2CCN(C(=O)c3ccoc3)CC2)n1	1.714%
CNC(=O)[C@@H]1C[C@@H](N)CN1C(=O)CCSCc1ccc(F)cc1	7.843%
c1cc(CNCC2OCCc3cn(CC4CC4)nc32)cs1 (centres undefined)	14.89%
COc1ncccc1C(Cc1ccsc1)NC(=O)Cn1cccnc1=O (centres undefined)	9.04%
CN(C)C(C(=O)NCC1(N(C)C)CCOCC1)c1ccccc1F (centres undefined)	10.53%
COc1ccc(C(=O)NCC(C)(O)CCc2ccccc2)cc1 (centres undefined)	6.475%
CCOC(=O)C1CN(CC2CC2)Cc2ncn(CC)c21 (centres undefined)	12.78%
CC(CCS(C)(=O)=O)NC(=O)NCc1ccc2ccccc2c1 (centres undefined)	10.14%
CCN(CC(F)(F)F)C(=O)C1CCCN(Cc2ccccn2)C1 (centres undefined)	14.63%
CCc1ccc(C(=O)N(CC)Cc2ccoc2)cc1S(C)(=O)=O	1.504%
O=C(CCc1nc(Cl)n[nH]1)NC1CCCN(C2Cc3ccccc3C2)C1 (centres undefined)	15.25%
Cn1nnc2cc(C(=O)NS(=O)(=O)Cc3ccc(F)cc3)ccc21	17.4%
CCn1c(C)nnc1CN(C)C1CCN(CCc2ccncc2)C1 (centres undefined)	7.639%
CC(C)CCn1c(=O)n(CCn2cccc2)c2cc(C(=O)O)cnc21	16.84%
Cn1cnnc1S(=O)(=O)C1CCN(C(=O)c2ccco2)CC1	-1.449%
O=C1C(NCc2nnc3n2CCCC3)CCN1CC(F)(F)F (centres undefined)	3.067%
COc1ccc(C(C)=O)c(OCC(=O)NC(C)c2ccc(F)cc2)c1 (centres undefined)	6.32%
c1ccc(Cn2ccnc2CN2CCOC(Cn3cccn3)C2)cc1 (centres undefined)	21.53%
CC(C)(C)OC(=O)NCC1CCCCN1Cc1ccccn1 (centres undefined)	2.847%
CCOCCCC(=O)Nc1c(-c2ccc(F)cc2)ncn1C	6.596%
Cn1ccc(CN2CCCC23CCN(Cc2nccn2C)CC3)n1	15.06%
CCN(CCCNC(=O)Nc1ccccc1C(C)C)S(C)(=O)=O	11.92%
COCCN1C[C@H]2CC[C@@H]1CN(Cc1ccc3ccccc3n1)C2	18.8%
O=C1OCCCN1Cc1nc(-c2ccncc2)no1	10.64%
COCCN(Cc1ccc(F)cc1Cl)C(=O)c1cc(C)no1	14.67%
CC(C)(C)n1nc(C2CC2)cc1C(=O)NC1CCN(CC(N)=O)CC1	8.943%
c1ccc(COC2CCN(c3cncc(-n4cccn4)n3)CC2)cc1	16.19%
COCCN1CCC(NCc2c(C)nn(C)c2N(C)C)CC1	17.37%
Cn1ncc2c1CN(Cc1ccc(F)cc1)CC2COCC1CC1 (centres undefined)	8.125%
CCCc1cnc(C)nc1NCCc1nc(C)cc(=O)[nH]1	5.783%
COc1cccc(CN(C)Cc2c(C)noc2C)c1OC	8.13%
Fc1cnccc1CN1CCC2(CCNCC2)C1	6.529%
O=C(NCCNc1ccc(C(F)(F)F)cn1)c1cc(Cl)ccc1F	20.99%
Cc1ccc2c(n1)N(CCN(C)C)CCN(C(=O)c1cscn1)C2	18.68%
CCc1nc(CNCC2(C(N)=O)CCOCC2)cs1	-7.949%
Cc1oc(-c2ccc(F)cc2)nc1CN1CCOCS1(=O)=O	10.27%
Cc1nnc(C2CCN(c3ncccn3)CC2)o1	11.17%
Cc1nn(C)c(N2CCOCC2)c1CNCC1CCCN1C (centres undefined)	15.33%
Cc1cnc(Nc2cccc(C3CCCN3C(=O)CO)n2)s1 (centres undefined)	16.77%
O=C1N(Cc2cccc(F)c2)CCC12CCCNC2 (centres undefined)	11.2%
CC(=O)c1cccc(S(=O)(=O)N2CCC(c3n[nH]c(C)n3)CC2)c1	3.509%
O=C(CCc1nc2cc(Br)cnc2[nH]1)NCCN1CCOCC1	9.329%
COc1ccccc1NCC(=O)NCc1cc[nH]n1	10.21%
COC(=O)c1ccc2nc(CO[C@H]3CN(CC4CC4)C[C@H]3F)[nH]c2c1	10.53%
COc1ccc(C(=O)N2CCC(Oc3ccccc3)(C(=O)O)CC2)o1	6.122%
Cc1cnn(CC2CCCCN2CCC(=O)Nc2cc(C)on2)c1 (centres undefined)	18.75%
Cc1ccc(N2CC[C@H]3OCC[C@@]3(C(=O)N3CCCC3)C2)nn1	11.26%
CN(C)C(=O)c1nn(C)c2c1CN(Cc1ccoc1)C2	18.12%
CN(Cc1cnc(C(C)(C)C)nc1)Cc1nc2ccc(F)cc2[nH]1	4.298%
O=C(c1cscn1)N1C[C@H](OCc2cccnc2)[C@H]2COC[C@H]21	15.74%
COc1ccccc1C(=O)N1Cc2cc(C)ccc2OCC1CN(C)C (centres undefined)	6.507%
Cn1ccnc1CN1CCN(CC2CC2)[C@@H]2CS(=O)(=O)C[C@@H]21	14.36%
CCC(=O)N1CCC1c1cc(NC2CCCC2)nc(C)n1 (centres undefined)	10.73%
Cc1cccc(CN2CCN(c3nc(CO)cs3)CC2)c1	17.96%
O=C(c1cc(-n2cnnn2)ccc1Cl)N1CCOCC1	11.33%
COCCN1CCC(CNC(=O)c2c[nH]c(=O)c(Cl)c2)CC1	3.971%
COC(C)(C)CNC(=O)N1CCCC1c1c(C)n[nH]c1C (centres undefined)	-0.2959%
O=C(c1ccc(C2CCCO2)s1)N1Cc2ccccc2C1 (centres undefined)	12.68%
O=C(N[C@H]1CC[C@@]2(CCC(=O)N2CC2CC2)CC1)c1cnccn1	-31.37%
c1ccc(-n2ccc(CNC3CCc4ncnn4C3)n2)cc1 (centres undefined)	15.21%
Cc1nc(CN(C)C2CCCN(c3cccnn3)C2)nc2ccccc12 (centres undefined)	28.77%
CC(C)(C)OC(=O)N1CCN(c2cccnc2)CC1C(=O)O (centres undefined)	5.774%
CC(C)OC(=O)CCNC(=O)Nc1cccc2ncccc12	12.15%
CC(O)CCN(C)S(=O)(=O)Cc1ccc(Br)cc1 (centres undefined)	12.1%
Cc1ccsc1[C@@H]1CCN(C(=O)CCC(=O)N2CCCCCC2)C[C@H]1O	14.16%
Cc1oncc1C(=O)N[C@@H]1CN(Cc2ccoc2)C[C@@H]2CCCO[C@@H]21	4.134%
CC1CCC(NC(=O)NCC(C)(C)CCS(C)(=O)=O)CC1 (centres undefined)	24.13%
CC(C)N1CCC(C(=O)N2CCC(C(O)c3nccn3C)CC2)CC1 (centres undefined)	18.02%
CCOc1ccnc(N2CCN(C(=O)CCc3ccncc3)CC2)n1	14.18%
CCc1nc2n(n1)CC(NCC(=O)Nc1cc(C)on1)CC2 (centres undefined)	0.4695%
Cc1n[nH]c(C)c1CCC(=O)N1CCC(O)(CN2CCN(C)CC2)C1 (centres undefined)	10.87%
C[C@@H]1CN(c2cc(N3CCC(O)CC3)ncn2)C[C@@]1(O)C1CC1	9.804%
Cc1noc(-c2ccnc(N3CCN(C4CCOCC4)CC3)c2)n1	-1.718%
Cc1ccc(CN2CCNC(=O)C2CC(=O)NCc2n[nH]c(C)n2)cc1 (centres undefined)	7.711%
CCNC(=O)CNS(=O)(=O)c1cc(Br)ccc1F	9.487%
CN(Cc1cnn(C)c1)C1CCN(c2cccc(-c3cscn3)c2)CC1	12.8%
Cc1ccc(CCC(=O)N(C)CCN2CCOCC2)c(C)c1	9.859%
CCOC(C)c1noc(CN2CCNCC2)n1 (centres undefined)	7.343%
CCCC1c2cccn2CCN1C(=O)Cn1cnc2sc(C)cc2c1=O (centres undefined)	15.94%
Cn1cc(N2CC3(CCN(CC4CC4)C3)CC2=O)cn1 (centres undefined)	13.36%
N#Cc1cccc(N2CCCC(CO)(CCOc3ccccc3)C2)n1 (centres undefined)	7.666%
CC(C)N1CCC(C(=O)N2CCN(c3cccc(C(=O)O)c3)CC2)CC1	19.58%
CC(C)(C)S(=O)(=O)c1ccc(N2CCN(c3ccccc3)CC2)nn1	8.633%

The last 6 entries again:

| structure | inhibition |
|---|---|
| `CCOC(C)c1noc(CN2CCNCC2)n1` (centres undefined) | 7.343% |
| `CCCC1c2cccn2CCN1C(=O)Cn1cnc2sc(C)cc2c1=O` (centres undefined) | 15.94% |
| `Cn1cc(N2CC3(CCN(CC4CC4)C3)CC2=O)cn1` (centres undefined) | 13.36% |
| `N#Cc1cccc(N2CCCC(CO)(CCOc3ccccc3)C2)n1` (centres undefined) | 7.666% |
| `CC(C)N1CCC(C(=O)N2CCN(c3cccc(C(=O)O)c3)CC2)CC1` | 19.58% |
| `CC(C)(C)S(=O)(=O)c1ccc(N2CCN(c3ccccc3)CC2)nn1` | 8.633% |